The list shows a part of the results.
Legend:
Assay in all cases: log2 fold change, soluble protein after heating vs DMSO (PISA); higher = thermal stabilisation; K562 lysate, 10 uM; active = over 0.2 and 3.5 SD of the protein, either way, in both replicates (recomputed)
[1] = compound: CCCS(=O)(=O)Nc1ccc(F)c(C(=O)c2c[nH]c3ncc(-c4ccc(Cl)cc4)cc23)c1F [vemurafenib]
Procedure, shortened: (§1)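 The values are log-two fold changes in thermal stability compared with solvent controls and come from duplicates. They were obtained by TMTpro 16plex LC-MS/MS, with channel sums equalised, on the supernatant after 21,000xg for 90 min. That supernatant came from crude K562 extract at 1 mg/mL protein treated with 10 μM compound for 30 min, heated for 3 min across 48°C-58°C, pooled and brought to 0.5% NP-40 at 4°C.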

Sequences of proteins named here, by UniProt entry; tags and fusion partners are left off. A change or cut given only in a name is not applied to a line headed by its entry.
UniProt Q8N1F8: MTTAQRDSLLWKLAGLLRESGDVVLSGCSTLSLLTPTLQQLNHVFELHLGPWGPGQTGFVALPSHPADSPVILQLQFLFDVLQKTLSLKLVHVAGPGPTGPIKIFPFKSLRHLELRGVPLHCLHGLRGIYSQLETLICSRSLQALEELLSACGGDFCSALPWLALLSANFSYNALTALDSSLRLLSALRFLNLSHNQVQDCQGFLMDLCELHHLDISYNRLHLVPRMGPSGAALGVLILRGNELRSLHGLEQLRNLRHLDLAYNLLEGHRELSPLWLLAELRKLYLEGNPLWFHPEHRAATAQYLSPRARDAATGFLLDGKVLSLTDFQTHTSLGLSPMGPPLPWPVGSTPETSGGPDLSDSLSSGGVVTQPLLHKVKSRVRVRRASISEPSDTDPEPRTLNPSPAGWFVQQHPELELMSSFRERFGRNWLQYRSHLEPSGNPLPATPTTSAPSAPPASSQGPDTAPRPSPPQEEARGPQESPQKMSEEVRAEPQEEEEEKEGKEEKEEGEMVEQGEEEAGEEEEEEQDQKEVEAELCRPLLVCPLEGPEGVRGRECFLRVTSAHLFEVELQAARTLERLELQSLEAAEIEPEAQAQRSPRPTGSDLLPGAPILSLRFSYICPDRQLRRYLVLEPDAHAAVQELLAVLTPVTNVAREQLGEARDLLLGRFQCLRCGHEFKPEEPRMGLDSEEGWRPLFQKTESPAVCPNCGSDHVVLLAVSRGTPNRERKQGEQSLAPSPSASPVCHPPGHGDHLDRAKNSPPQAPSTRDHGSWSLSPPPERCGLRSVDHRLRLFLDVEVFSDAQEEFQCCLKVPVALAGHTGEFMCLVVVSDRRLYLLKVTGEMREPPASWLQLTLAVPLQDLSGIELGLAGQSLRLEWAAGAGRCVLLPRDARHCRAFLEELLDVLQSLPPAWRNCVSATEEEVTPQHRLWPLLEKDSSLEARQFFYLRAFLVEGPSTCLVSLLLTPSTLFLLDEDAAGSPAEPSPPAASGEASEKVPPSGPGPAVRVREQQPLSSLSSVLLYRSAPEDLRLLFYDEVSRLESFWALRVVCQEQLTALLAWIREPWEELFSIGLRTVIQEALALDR
UniProt Q8NBJ7: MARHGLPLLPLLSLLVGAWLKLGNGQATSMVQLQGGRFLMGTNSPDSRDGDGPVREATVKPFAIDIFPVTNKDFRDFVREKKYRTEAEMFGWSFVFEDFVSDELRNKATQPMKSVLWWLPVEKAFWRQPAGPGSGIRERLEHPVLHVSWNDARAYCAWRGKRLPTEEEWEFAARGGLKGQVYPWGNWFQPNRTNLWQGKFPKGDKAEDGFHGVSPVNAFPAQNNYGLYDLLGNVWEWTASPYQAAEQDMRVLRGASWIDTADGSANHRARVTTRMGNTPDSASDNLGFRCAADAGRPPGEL
UniProt Q15208: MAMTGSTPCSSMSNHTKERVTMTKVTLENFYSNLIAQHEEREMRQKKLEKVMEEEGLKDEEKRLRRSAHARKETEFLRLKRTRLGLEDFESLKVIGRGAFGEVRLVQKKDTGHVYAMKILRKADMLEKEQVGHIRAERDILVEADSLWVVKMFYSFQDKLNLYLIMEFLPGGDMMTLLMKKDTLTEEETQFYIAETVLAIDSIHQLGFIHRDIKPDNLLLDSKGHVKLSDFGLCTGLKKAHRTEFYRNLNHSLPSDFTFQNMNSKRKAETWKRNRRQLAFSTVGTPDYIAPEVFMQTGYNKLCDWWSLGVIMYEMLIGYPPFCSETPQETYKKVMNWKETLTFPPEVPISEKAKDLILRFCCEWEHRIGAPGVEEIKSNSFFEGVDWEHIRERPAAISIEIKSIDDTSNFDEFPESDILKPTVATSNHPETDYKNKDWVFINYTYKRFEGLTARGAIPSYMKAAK
UniProt Q13190: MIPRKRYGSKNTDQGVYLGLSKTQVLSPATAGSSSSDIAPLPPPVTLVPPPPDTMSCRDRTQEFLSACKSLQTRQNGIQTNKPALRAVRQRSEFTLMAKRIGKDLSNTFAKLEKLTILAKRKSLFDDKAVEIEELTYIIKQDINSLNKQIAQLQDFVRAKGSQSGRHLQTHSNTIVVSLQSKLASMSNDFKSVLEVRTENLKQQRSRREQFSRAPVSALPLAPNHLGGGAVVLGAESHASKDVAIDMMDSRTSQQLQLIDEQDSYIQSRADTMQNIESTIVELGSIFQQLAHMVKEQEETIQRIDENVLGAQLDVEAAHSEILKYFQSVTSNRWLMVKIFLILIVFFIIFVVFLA
UniProt Q93045: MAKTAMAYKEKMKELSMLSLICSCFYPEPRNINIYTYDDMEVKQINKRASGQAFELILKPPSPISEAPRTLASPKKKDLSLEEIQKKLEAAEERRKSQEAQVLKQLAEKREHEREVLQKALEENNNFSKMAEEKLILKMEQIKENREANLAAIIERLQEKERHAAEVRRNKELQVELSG
UniProt Q8NHG7: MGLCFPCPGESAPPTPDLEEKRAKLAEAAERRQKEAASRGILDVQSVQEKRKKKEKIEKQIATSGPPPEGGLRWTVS
UniProt Q9UNK0: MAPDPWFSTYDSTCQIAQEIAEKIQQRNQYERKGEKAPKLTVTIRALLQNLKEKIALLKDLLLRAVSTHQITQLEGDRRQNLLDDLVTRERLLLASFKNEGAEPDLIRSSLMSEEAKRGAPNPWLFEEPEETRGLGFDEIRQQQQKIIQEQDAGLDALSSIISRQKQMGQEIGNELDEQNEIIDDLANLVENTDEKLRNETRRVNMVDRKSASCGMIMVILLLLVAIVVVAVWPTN
UniProt Q13277: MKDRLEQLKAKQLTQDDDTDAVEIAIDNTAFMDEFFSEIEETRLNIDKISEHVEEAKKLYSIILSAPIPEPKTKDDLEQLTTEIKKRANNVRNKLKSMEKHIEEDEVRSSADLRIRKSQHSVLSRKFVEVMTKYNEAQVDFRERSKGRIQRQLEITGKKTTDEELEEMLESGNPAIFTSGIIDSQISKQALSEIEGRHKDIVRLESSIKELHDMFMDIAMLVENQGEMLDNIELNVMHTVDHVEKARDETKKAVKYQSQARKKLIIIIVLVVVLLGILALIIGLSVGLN
UniProt Q8TCJ2: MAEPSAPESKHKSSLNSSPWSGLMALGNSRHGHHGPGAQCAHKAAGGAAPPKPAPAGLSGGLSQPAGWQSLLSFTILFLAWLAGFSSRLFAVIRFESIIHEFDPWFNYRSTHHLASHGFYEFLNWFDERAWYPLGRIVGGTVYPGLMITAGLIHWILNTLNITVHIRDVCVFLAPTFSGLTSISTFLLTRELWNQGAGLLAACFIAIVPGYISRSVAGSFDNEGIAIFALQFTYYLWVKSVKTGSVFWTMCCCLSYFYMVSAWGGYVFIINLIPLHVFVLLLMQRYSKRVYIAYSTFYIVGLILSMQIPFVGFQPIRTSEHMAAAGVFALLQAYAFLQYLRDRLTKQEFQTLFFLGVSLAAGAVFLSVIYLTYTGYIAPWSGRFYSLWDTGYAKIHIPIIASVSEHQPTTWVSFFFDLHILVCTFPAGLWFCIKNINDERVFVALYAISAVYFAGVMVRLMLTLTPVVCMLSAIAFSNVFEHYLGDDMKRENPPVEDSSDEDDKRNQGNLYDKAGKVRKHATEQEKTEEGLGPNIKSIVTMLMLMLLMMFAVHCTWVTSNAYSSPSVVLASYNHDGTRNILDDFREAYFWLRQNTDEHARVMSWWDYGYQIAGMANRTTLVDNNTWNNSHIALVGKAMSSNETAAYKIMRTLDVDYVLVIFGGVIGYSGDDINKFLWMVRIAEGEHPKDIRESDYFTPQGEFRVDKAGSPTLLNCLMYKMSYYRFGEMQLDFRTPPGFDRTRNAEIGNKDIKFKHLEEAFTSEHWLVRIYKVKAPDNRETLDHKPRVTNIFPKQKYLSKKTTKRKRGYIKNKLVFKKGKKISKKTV
UniProt Q96BN2: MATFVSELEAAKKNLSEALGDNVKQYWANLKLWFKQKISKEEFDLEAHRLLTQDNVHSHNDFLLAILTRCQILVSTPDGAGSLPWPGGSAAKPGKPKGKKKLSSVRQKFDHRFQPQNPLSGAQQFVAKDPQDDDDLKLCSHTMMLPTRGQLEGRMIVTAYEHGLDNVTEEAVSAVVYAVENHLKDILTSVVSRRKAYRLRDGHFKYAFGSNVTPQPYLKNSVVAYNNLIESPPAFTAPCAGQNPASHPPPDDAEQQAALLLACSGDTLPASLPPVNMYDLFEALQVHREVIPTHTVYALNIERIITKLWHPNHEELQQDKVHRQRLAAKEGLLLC
UniProt Q1ZZU3: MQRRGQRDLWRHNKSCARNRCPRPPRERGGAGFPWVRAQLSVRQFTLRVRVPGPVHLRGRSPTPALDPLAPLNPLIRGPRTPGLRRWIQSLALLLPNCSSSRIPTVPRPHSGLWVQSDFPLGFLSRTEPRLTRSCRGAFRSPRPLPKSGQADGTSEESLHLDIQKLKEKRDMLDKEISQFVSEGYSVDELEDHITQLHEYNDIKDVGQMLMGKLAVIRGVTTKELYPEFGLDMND
UniProt P56962: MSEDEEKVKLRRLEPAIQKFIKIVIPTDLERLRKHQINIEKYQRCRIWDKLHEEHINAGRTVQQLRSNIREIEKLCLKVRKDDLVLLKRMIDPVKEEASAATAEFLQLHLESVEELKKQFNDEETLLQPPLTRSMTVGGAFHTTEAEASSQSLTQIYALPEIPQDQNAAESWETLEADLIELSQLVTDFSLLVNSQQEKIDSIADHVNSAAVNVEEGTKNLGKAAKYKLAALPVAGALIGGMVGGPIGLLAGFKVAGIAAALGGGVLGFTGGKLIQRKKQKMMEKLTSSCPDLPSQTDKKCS
UniProt Q8IWZ8: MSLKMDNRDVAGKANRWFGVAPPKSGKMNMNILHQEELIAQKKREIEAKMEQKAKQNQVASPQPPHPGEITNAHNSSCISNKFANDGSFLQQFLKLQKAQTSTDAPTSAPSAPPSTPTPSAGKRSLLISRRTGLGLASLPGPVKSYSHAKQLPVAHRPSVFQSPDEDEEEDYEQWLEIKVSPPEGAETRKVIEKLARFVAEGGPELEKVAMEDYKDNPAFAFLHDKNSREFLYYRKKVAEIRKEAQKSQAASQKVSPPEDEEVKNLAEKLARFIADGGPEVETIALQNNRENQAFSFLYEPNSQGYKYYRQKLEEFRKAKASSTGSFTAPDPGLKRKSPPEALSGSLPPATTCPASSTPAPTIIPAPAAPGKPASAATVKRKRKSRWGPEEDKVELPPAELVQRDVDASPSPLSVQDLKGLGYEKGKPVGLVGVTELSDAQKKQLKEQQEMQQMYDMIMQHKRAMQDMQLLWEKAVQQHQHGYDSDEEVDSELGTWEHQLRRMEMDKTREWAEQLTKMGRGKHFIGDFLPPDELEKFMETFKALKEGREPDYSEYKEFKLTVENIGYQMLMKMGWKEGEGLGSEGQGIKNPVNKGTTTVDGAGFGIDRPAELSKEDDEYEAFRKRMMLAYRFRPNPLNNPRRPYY
UniProt Q12962, whole entry, looked up: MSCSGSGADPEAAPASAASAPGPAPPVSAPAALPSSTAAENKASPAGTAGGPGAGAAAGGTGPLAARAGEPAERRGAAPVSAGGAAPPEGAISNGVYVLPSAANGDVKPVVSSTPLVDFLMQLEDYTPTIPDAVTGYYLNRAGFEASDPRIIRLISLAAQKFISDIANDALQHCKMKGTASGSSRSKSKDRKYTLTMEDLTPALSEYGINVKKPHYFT
UniProt Q9P2W9: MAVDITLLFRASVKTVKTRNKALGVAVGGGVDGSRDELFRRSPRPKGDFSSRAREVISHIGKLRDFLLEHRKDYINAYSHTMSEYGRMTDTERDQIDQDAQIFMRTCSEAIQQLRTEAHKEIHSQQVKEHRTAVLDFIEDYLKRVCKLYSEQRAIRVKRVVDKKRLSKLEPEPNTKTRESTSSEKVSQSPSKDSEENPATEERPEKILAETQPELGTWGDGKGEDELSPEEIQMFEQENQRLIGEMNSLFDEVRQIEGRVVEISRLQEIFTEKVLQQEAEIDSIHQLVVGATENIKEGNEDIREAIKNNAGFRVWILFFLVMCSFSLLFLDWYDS

[2] = compound: CCCS(=O)(=O)Nc1ccc(F)c(C(=O)c2c[nH]c3ncc(Cl)cc23)c1F
Procedure, shortened: as §1

[3] = compound: CCN(CCCOc1ccc2c(Nc3cc(CC(=O)Nc4cccc(F)c4)[nH]n3)ncnc2c1)CCOP(=O)(O)O [barasertib]
Procedure, shortened: as §1

[4] = compound: CC[C@@H]1C(=O)N(C)c2cnc(Nc3ccc(C(=O)NC4CCN(C)CC4)cc3OC)nc2N1C1CCCC1
Procedure, shortened: as §1

[5] = compound: CC[C@@H]1C(=O)N(C)c2cnc(Nc3ccc(C(=O)N[C@H]4CC[C@H](N5CCN(CC6CC6)CC5)CC4)cc3OC)nc2N1C(C)C [volasertib]
Procedure, shortened: as §1

[6] = compound: CCn1c(C(=O)N(C2CC2)C2CC2)cc2c3c(ncn3C)c(Nc3cc(C)n(C)n3)nc21
Procedure, shortened: as §1

[7] = compound: CCn1cc(-c2ccnc3[nH]c(-c4cccc(CN(C)C)c4)cc23)c(-c2ccc(NC(=O)N(C)C)cc2)n1
Procedure, shortened: as §1

[8] = compound: CN1CCC(CNc2ccc3ncc(-c4cccc(OC(F)(F)F)c4)n3n2)CC1
Procedure, shortened: as §1

[9] = compound: CN1CCN(CCOc2cc(OC3CCOCC3)c3c(Nc4c(Cl)ccc5c4OCO5)ncnc3c2)CC1 [saracatinib]
Procedure, shortened: as §1

[10] = compound: CN1CCN(c2nc(C3=C(c4c[nH]c5ccccc45)C(=O)NC3=O)c3ccccc3n2)CC1 [sotrastaurin]
Procedure, shortened: as §1

[11] = compound: CN1CC[C@H](c2c(O)cc(O)c3c(=O)cc(-c4ccccc4Cl)oc23)[C@H](O)C1 [alvocidib]
Procedure, shortened: as §1

[12] = compound: CN1CCc2c(c3ccccc3n2Cc2ccc(C(=O)NO)cc2)C1 [Tubastatin A]
Procedure, shortened: as §1

[13] = compound: CNC(=O)C1=CC=CC=C1NC2=NC(=NC=C2Cl)NC3=C(C=C(C=C3)N4CCOCC4)OC
Procedure, shortened: as §1

[14] = compound: CNC(=O)c1ccc(Nc2ncc(C(F)(F)F)c(NCc3nccnc3N(C)S(C)(=O)=O)n2)cc1 [defactinib]
Procedure, shortened: as §1

[15] = compound: CNc1nc(-c2ccc3c(N)n[nH]c3c2)cc(N2C[C@@H](C(=O)NC3CCCCC3)CC[C@H]2C)n1
Procedure, shortened: as §1

[16] = compound: COC(=O)N[C@@H](C)CNc1nccc(-c2cn(C(C)C)nc2-c2cc(Cl)cc(NS(C)(=O)=O)c2F)n1 [encorafenib]
Procedure, shortened: as §1

[17] = compound: COC(=O)[C@H](CCSC)NC(=O)C1=C(C=C(C=C1)NC[C@H](CS)N)C2=CC=CC=C2
Procedure, shortened: as §1

[18] = compound: COc1cc(Nc2ncc3c(n2)-c2ccc(Cl)cc2C(c2c(F)cccc2OC)=NC3)ccc1C(=O)O [alisertib]
Procedure, shortened: as §1

[19] = compound: COc1cc2nc(-c3cc(F)ccc3O)nc(N[C@@H]3CNC[C@H]3C(C)(C)O)c2cc1OC
Procedure, shortened: as §1

[20] = compound: COc1cc2ncnc(Nc3ccc(F)c(Cl)c3)c2cc1OCCCN1CCOCC1 [gefitinib]
Procedure, shortened: as §1

Target | log2 fold change [1] | log2 fold change [2] | log2 fold change [3] | log2 fold change [4] | log2 fold change [5] | log2 fold change [6] | log2 fold change [7] | log2 fold change [8] | log2 fold change [9] | log2 fold change [10] | log2 fold change [11] | log2 fold change [12] | log2 fold change [13] | log2 fold change [14] | log2 fold change [15] | log2 fold change [16] | log2 fold change [17] | log2 fold change [18] | log2 fold change [19] | log2 fold change [20]
STK11IP (UniProt Q8N1F8) | inactive: -0.016 | inactive: 0.018 | inactive: -0.04 | inactive: 0.075 | inactive: -0.067 | inactive: 0.002 | inactive: 0.015 | inactive: -0.072 | inactive: 0.012 | inactive: 0.016 | inactive: 0.013 | inactive: -0.005 | inactive: -0.025 | inactive: 0.041 | inactive: -0.014 | inactive: 0.053 | inactive: 0.062 | inactive: -0.026 | inactive: 0.025 | inactive: 0.069
SUMF2 (UniProt Q8NBJ7) | inactive: -0.02 | inactive: -0.008 | inactive: -0.093 | inactive: 0.089 | inactive: -0.021 | inactive: -0.031 | inactive: -0.102 | inactive: 0.01 | inactive: 0.015 | inactive: 0.024 | inactive: -0.015 | inactive: -0.052 | inactive: -0.057 | inactive: 0.009 | inactive: -0.016 | inactive: -0.015 | inactive: 0.053 | inactive: -0.023 | inactive: 0.026 | inactive: 0.056
STK38 (UniProt Q15208) | inactive: -0.046 | inactive: -0.012 | inactive: 0.031 | inactive: -0.112 | inactive: -0.092 | inactive: 0.019 | inactive: 0.122 | inactive: 0.002 | inactive: -0.019 | inactive: 0.02 | inactive: 0.014 | inactive: -0.056 | active: 0.912 | active: 0.502 | inactive: -0.037 | inactive: -0.033 | inactive: 0.056 | inactive: 0.003 | inactive: 0.266 | inactive: 0.005
STX5 (UniProt Q13190) | inactive: 0.097 | inactive: -0.015 | inactive: 0.064 | inactive: 0.03 | inactive: -0.077 | inactive: 0.034 | inactive: -0.049 | inactive: -0.124 | inactive: 0.081 | inactive: 0.017 | inactive: 0.009 | inactive: -0.056 | inactive: -0.001 | inactive: 0.069 | inactive: -0.047 | inactive: -0.017 | inactive: 0.028 | inactive: 0.008 | inactive: 0.093 | inactive: -0.056
STMN2 isoform 2 (UniProt Q93045) | inactive: 0.024 | inactive: -0.065 | inactive: -0.042 | inactive: 0.017 | inactive: 0.079 | inactive: 0.004 | inactive: 0.07 | inactive: -0.077 | inactive: -0.055 | inactive: -0.007 | inactive: 0.091 | inactive: 0.103 | inactive: -0.046 | inactive: -0.074 | inactive: 0.047 | inactive: -0.038 | inactive: -0.007 | inactive: -0.002 | inactive: -0.014 | inactive: -0.103
SVIP (UniProt Q8NHG7) | inactive: -0.014 | inactive: 0.014 | inactive: 0.051 | inactive: 0.079 | inactive: 0.095 | inactive: -0.11 | inactive: 0.033 | inactive: 0.005 | inactive: 0 | inactive: -0.086 | inactive: -0.014 | inactive: 0.028 | inactive: -0.017 | inactive: 0.025 | inactive: 0.098 | inactive: -0.042 | inactive: -0.055 | inactive: 0.05 | inactive: -0.039 | inactive: -0.099
STX8 (UniProt Q9UNK0) | inactive: -0.089 | inactive: -0.003 | inactive: -0.024 | inactive: 0.017 | inactive: -0.009 | inactive: 0.068 | inactive: -0.048 | inactive: 0.018 | inactive: 0 | inactive: -0.002 | inactive: 0.015 | inactive: -0.013 | inactive: -0.014 | inactive: 0.069 | inactive: -0.056 | inactive: 0.06 | inactive: -0.035 | inactive: 0.039 | inactive: 0.035 | inactive: 0.042
STX3 (UniProt Q13277) | inactive: -0.051 | inactive: -0.027 | inactive: 0.008 | inactive: -0.013 | inactive: -0.006 | inactive: -0.014 | inactive: 0.199 | inactive: 0.015 | inactive: -0.011 | inactive: -0.035 | inactive: 0.006 | inactive: 0.023 | inactive: -0.023 | inactive: 0.026 | inactive: -0.055 | inactive: 0.034 | inactive: -0.032 | inactive: -0.05 | inactive: -0.015 | inactive: 0.013
STT3B (UniProt Q8TCJ2) | inactive: -0.012 | inactive: 0.001 | inactive: -0.023 | inactive: -0.02 | inactive: 0.023 | inactive: 0.011 | inactive: -0.121 | inactive: 0.133 | inactive: 0.078 | inactive: 0.048 | inactive: -0.142 | inactive: -0.01 | inactive: 0.002 | inactive: 0.019 | inactive: 0.004 | inactive: 0.014 | inactive: -0.022 | inactive: -0.013 | inactive: -0.032 | inactive: 0.052
TADA1 (UniProt Q96BN2) | inactive: 0.06 | inactive: 0.076 | inactive: -0.008 | inactive: 0.04 | inactive: 0.003 | inactive: 0.051 | inactive: -0.075 | inactive: -0.012 | inactive: 0.105 | inactive: -0.051 | inactive: -0.02 | inactive: -0.106 | inactive: 0.005 | inactive: -0.021 | inactive: 0.062 | inactive: 0.044 | inactive: 0.002 | inactive: 0.018 | inactive: 0.106 | inactive: -0.009
SWI5 (UniProt Q1ZZU3) | inactive: 0.042 | inactive: 0.039 | inactive: 0 | inactive: 0.008 | inactive: 0.071 | inactive: -0.068 | inactive: -0.279 | inactive: 0.003 | inactive: -0.002 | inactive: -0.018 | inactive: 0.032 | inactive: 0.008 | inactive: 0.012 | inactive: -0.065 | inactive: 0.032 | inactive: 0.044 | inactive: -0.02 | inactive: 0.049 | inactive: -0.01 | inactive: 0.056
STX17 (UniProt P56962) | inactive: 0.095 | inactive: -0.015 | inactive: 0.014 | inactive: 0.007 | inactive: -0.038 | inactive: -0.092 | inactive: -0.033 | inactive: -0.102 | inactive: -0.009 | inactive: -0.006 | inactive: 0.018 | inactive: 0.045 | inactive: 0.002 | inactive: -0.025 | inactive: 0.333 | inactive: 0.019 | inactive: -0.013 | inactive: 0.057 | inactive: 0.047 | inactive: -0.034
SUGP1 (UniProt Q8IWZ8) | inactive: -0.029 | inactive: 0.001 | inactive: -0.001 | inactive: 0.051 | inactive: -0.007 | inactive: 0.014 | inactive: -0.014 | inactive: 0.04 | inactive: 0.012 | inactive: 0.028 | inactive: -0.019 | inactive: -0.007 | inactive: -0.013 | inactive: 0.039 | inactive: -0.008 | inactive: 0.009 | inactive: -0.002 | inactive: -0.043 | inactive: 0.02 | inactive: 0.005
TAF10 (UniProt Q12962) | inactive: -0.025 | inactive: 0.012 | inactive: 0.027 | inactive: 0.015 | inactive: 0.027 | inactive: -0.029 | inactive: -0.028 | inactive: -0.031 | inactive: -0.093 | inactive: 0.021 | inactive: 0.074 | inactive: -0.019 | inactive: 0.017 | inactive: 0.046 | inactive: -0.027 | inactive: -0.009 | inactive: -0.145 | inactive: -0.039 | inactive: -0.046 | inactive: -0.124
STX18 (UniProt Q9P2W9) | inactive: -0.008 | inactive: 0.03 | inactive: 0.093 | inactive: 0.018 | inactive: -0.051 | inactive: 0.169 | inactive: -0.028 | inactive: -0.061 | inactive: 0.019 | inactive: -0.017 | inactive: -0.011 | inactive: 0.096 | inactive: -0.297 | inactive: -0.062 | inactive: -0.086 | inactive: 0.001 | inactive: 0.019 | inactive: 0.046 | inactive: 0.072 | inactive: 0.06
SYNE2 isoform 2 (UniProt Q8WXH0) | inactive: 0.009 | inactive: 0.005 | inactive: 0.085 | inactive: 0.004 | inactive: 0.065 | inactive: -0.042 | active: -0.966 | inactive: 0.371 | inactive: -0.054 | inactive: 0.035 | inactive: -0.415 | inactive: 0.143 | inactive: -0.117 | inactive: -0.139 | inactive: -0.003 | inactive: -0.036 | inactive: 0.004 | inactive: 0.037 | inactive: 0.034 | inactive: -0.059

Nothing new here: an excerpt of the list.
Target | log2 fold change [1] | log2 fold change [2] | log2 fold change [3] | log2 fold change [4] | log2 fold change [5] | log2 fold change [6] | log2 fold change [7] | log2 fold change [8] | log2 fold change [9] | log2 fold change [10] | log2 fold change [11] | log2 fold change [12] | log2 fold change [13] | log2 fold change [14] | log2 fold change [15] | log2 fold change [16] | log2 fold change [17] | log2 fold change [18] | log2 fold change [19] | log2 fold change [20]
SUGP1 (UniProt Q8IWZ8) | inactive: -0.029 | inactive: 0.001 | inactive: -0.001 | inactive: 0.051 | inactive: -0.007 | inactive: 0.014 | inactive: -0.014 | inactive: 0.04 | inactive: 0.012 | inactive: 0.028 | inactive: -0.019 | inactive: -0.007 | inactive: -0.013 | inactive: 0.039 | inactive: -0.008 | inactive: 0.009 | inactive: -0.002 | inactive: -0.043 | inactive: 0.02 | inactive: 0.005
TAF10 (UniProt Q12962) | inactive: -0.025 | inactive: 0.012 | inactive: 0.027 | inactive: 0.015 | inactive: 0.027 | inactive: -0.029 | inactive: -0.028 | inactive: -0.031 | inactive: -0.093 | inactive: 0.021 | inactive: 0.074 | inactive: -0.019 | inactive: 0.017 | inactive: 0.046 | inactive: -0.027 | inactive: -0.009 | inactive: -0.145 | inactive: -0.039 | inactive: -0.046 | inactive: -0.124

Reference: the supplement of paper PMC10849652
